Experimental data reported in PMC8050389.
No constants are given. Whether binding was seen depends on the method and setting. Binding seen in cells or lysates may run through a third protein. Some results given as binding are weak or reduced against the parent protein; the word gives no strength. For some assays here: Where a sequence is shown, tags or fusion partners need not be part of it.

Chains of the proteins cited; added tags and fusions are not shown.
UniProt Q13485: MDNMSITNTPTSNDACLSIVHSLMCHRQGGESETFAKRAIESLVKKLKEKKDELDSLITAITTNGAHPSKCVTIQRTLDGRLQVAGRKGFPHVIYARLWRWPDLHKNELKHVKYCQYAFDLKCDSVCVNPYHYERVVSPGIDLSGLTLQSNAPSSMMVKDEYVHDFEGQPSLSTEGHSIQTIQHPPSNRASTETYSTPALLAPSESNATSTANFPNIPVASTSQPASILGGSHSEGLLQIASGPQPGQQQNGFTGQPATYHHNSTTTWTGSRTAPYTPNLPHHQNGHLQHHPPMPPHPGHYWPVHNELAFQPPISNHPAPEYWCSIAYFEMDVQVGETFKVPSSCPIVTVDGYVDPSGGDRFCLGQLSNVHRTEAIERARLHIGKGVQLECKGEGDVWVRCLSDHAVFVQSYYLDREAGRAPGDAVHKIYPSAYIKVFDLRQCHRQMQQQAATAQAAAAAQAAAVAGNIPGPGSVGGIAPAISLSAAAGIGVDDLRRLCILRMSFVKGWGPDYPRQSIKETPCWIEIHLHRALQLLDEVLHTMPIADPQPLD
UniProt Q15797: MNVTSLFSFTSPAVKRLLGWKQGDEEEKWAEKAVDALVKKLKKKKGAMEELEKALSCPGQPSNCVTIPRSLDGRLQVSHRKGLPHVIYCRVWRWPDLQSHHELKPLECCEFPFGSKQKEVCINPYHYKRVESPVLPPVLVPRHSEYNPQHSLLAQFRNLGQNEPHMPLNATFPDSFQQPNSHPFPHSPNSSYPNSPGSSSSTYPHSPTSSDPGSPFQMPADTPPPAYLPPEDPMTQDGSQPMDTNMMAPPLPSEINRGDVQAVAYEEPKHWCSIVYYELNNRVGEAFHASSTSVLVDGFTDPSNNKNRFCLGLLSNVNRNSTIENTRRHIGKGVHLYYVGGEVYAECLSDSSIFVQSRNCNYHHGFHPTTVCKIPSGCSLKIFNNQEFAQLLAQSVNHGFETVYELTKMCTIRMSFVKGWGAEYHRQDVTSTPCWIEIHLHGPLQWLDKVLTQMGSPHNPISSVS

Legend:
[1] = target: T1, FLAG-tagged Smad6 R81A mutant (in HaCaT cells) (UniProt O35182); experiment: co-IP; HaCaT cells transfected with FLAG–Smad6 WT or R81A, BMP4 for 60 min; IP with anti-FLAG antibody (anti-GFP as control), blot for Smad1 and pSmad1; IP lysis buffer with 150-mM NaCl, 1% NP-40
T1 sequence: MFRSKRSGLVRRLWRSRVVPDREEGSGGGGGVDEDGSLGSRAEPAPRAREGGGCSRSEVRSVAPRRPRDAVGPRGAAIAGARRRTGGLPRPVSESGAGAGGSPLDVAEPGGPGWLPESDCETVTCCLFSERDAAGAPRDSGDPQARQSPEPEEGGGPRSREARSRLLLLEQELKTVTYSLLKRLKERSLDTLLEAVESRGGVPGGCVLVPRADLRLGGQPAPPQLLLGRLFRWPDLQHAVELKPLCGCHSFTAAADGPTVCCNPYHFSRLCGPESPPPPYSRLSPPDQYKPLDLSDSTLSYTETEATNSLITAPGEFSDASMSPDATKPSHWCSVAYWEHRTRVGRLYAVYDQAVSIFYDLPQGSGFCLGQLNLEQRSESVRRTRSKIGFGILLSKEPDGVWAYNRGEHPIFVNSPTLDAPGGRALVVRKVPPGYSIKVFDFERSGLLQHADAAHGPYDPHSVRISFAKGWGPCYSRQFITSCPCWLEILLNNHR

[2] = target: Smad4, endogenous in HaCaT cells (human (endogenous in HaCaT)) (UniProt Q13485); experiment: co-IP; endogenous Smad1 and Smad4 in BMP4-treated HaCaT cells transfected with increasing amounts of FLAG-Smad6 WT or R81A; IP with anti-Smad4 antibody (anti-GFP as control), blot for pSmad1
MYC-tagged Smad4 = MYC-tagged Smad4 (UniProt Q13485); experiment: co-IP; 293T cells transfected with MYC-Smad4, FLAG-Smad1, HA-BMPRIAca and FLAG-Smad6 WT, R81A or R81K; IP with anti-MYC antibody, blot for Smad1 and pSmad1
[3] = target: T2, FLAG-tagged Smad6^331–495 (MH2 domain, C-terminal residues) (UniProt O35182); experiment: co-IP; HA-Smad6^1–330 (WT or R81A) coexpressed with FLAG-Smad6^331–495 in 293T cells, also in 293T cells stably expressing control shRNA or shRNA targeting PRMT1
T2 sequence: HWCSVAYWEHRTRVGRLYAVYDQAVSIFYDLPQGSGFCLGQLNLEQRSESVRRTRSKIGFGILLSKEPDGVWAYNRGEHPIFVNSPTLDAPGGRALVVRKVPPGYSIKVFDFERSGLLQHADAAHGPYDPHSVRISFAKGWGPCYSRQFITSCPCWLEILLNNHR

Molecule: Smad1, endogenous in HaCaT cells (from UniProt Q15797 1-465)
- binding [1]: no binding
- binding [2]: binds

Molecule: FLAG-tagged Smad1, phosphorylated (from 293T cells coexpressing BMP receptors) (from UniProt Q15797 1-465)
- binding (MYC-tagged Smad4): binds

B1: HA-tagged Smad6^1–330 WT (MH1 domain, N-terminal 330 amino acids) (domain or fragment, UniProt O35182 1-330)
chain: MFRSKRSGLVRRLWRSRVVPDREEGSGGGGGVDEDGSLGSRAEPAPRAREGGGCSRSEVRSVAPRRPRDAVGPRGAAIAGRRRRTGGLPRPVSESGAGAGGSPLDVAEPGGPGWLPESDCETVTCCLFSERDAAGAPRDSGDPQARQSPEPEEGGGPRSREARSRLLLLEQELKTVTYSLLKRLKERSLDTLLEAVESRGGVPGGCVLVPRADLRLGGQPAPPQLLLGRLFRWPDLQHAVELKPLCGCHSFTAAADGPTVCCNPYHFSRLCGPESPPPPYSRLSPPDQYKPLDLSDSTLSYTETEATNSLITAPGEFSDASMSPDATKPS
- binding [3]: binds

B2: HA-tagged Smad6^1–330 R81A mutant (domain or fragment, UniProt O35182 1-330)
chain: MFRSKRSGLVRRLWRSRVVPDREEGSGGGGGVDEDGSLGSRAEPAPRAREGGGCSRSEVRSVAPRRPRDAVGPRGAAIAGARRRTGGLPRPVSESGAGAGGSPLDVAEPGGPGWLPESDCETVTCCLFSERDAAGAPRDSGDPQARQSPEPEEGGGPRSREARSRLLLLEQELKTVTYSLLKRLKERSLDTLLEAVESRGGVPGGCVLVPRADLRLGGQPAPPQLLLGRLFRWPDLQHAVELKPLCGCHSFTAAADGPTVCCNPYHFSRLCGPESPPPPYSRLSPPDQYKPLDLSDSTLSYTETEATNSLITAPGEFSDASMSPDATKPS
- binding [3]: binds
